The test system of this assay is L1210 leukemia ip in BDF1 mice, survival T/C. Briefly: NCI In Vivo Anticancer Drug Screen. Data for tumor model L1210 Leukemia (intraperitoneal) in B6D2F1 (BDF1) mice. The following applies: T/C endpoint: mean survival time, higher T/C = longer survival.
The mark [1] stands for this setting: dose: 200.0 mg/kg/injection, schedule: Q04DX002 (ip), vehicle: Klucel (hydroxypropylcellulose) (HPC).
The mark [2] stands for this setting: dose: 400.0 mg/kg/injection, schedule: Q04DX002 (ip), vehicle: Klucel (hydroxypropylcellulose) (HPC).

Structures are written as SMILES. The list does not hold the whole screen: it is rich in T/C values a quarter to a half above the control, in often repeated tests (any T/C) and in doses without a T/C. Other doses and runs of a compound stand elsewhere. T/C is the treated group as % of the vehicle group. Some entries give survivors of the animals treated and no T/C: the source holds a T/C of zero for them, seemingly a mark for toxic or unscored doses. Some doses without a T/C left all or most animals alive at the check, yet need not have been tolerated: the source hardly ever lists a survival T/C far under the control, and the zero likely stands for such cases as well. Counts of survivors are from the toxicity check (mostly the fifth day) where no day follows; animals may have died later. Schedules are NCI's codes, read here as Q, the interval in days (D) or hours (H), X, the number of doses. Some entries hold several experiments; their values stand side by side, smallest first.

With `CCCCCCCCCCCCCCCCCC(=O)[O][Pb]([CH3])([CH3])[CH3]`, the survivor count (dose: 50.0 mg/kg/injection, schedule: Q04DX002 (ip), vehicle: Klucel (hydroxypropylcellulose) (HPC)) is listed as 0 of 3; the survivor count (dose: 100.0 mg/kg/injection, schedule: Q04DX002 (ip), vehicle: Klucel (hydroxypropylcellulose) (HPC)) was 0 of 3 and 1 of 3; the survivor count under setting [1] is listed as 0 of 3; the survivor count under setting [2] was 0 of 3.

As for `CCO/C=C1\SC(=S)N(c2cccc(C)c2)C1=O`, the survivor count (dose: 400.0 mg/kg/injection, schedule: Q01DX009 (ip), vehicle: Klucel (hydroxypropylcellulose) (HPC)) is recorded as 5 of 6.

Consider `Cc1ccc(N=Nc2ccc(C)cc2NC(=O)c2ccc(Cl)cc2)cc1`, for which the survivor count is on record as 6 of 6 (dose: 100.0 mg/kg/injection, schedule: Q04DX003 (ip), vehicle: saline with Tween-80); 6 of 6 (dose: 200.0 mg/kg/injection, schedule: Q01DX001 (ip), vehicle: saline with Tween-80); 6 of 6 (dose: 200.0 mg/kg/injection, schedule: Q04DX003 (ip), vehicle: saline with Tween-80); 6 of 6 (dose: 400.0 mg/kg/injection, schedule: Q01DX001 (ip), vehicle: saline with Tween-80).

Consider `C=CCNC(=S)NCc1ccc(Cl)cc1`, for which the survivor count was 3 of 6 (dose: 100.0 mg/kg/injection, schedule: Q01DX009 (ip), vehicle: Klucel (hydroxypropylcellulose) (HPC)); 0 of 6 (dose: 150.0 mg/kg/injection, schedule: Q01DX009 (ip), vehicle: Klucel (hydroxypropylcellulose) (HPC)); 0 of 3 under setting [1]; 0 of 6 (dose: 225.0 mg/kg/injection, schedule: Q01DX009 (ip), vehicle: Klucel (hydroxypropylcellulose) (HPC)); 0 of 6 (dose: 335.0 mg/kg/injection, schedule: Q01DX009 (ip), vehicle: Klucel (hydroxypropylcellulose) (HPC)); 0 of 3 under setting [2].

For `CC(C)OC(=S)SSC(=S)OC(C)C`, the survivor count (dose: 400.0 mg/kg/injection, schedule: Q04DX003 (ip), vehicle: other) is listed as 3 of 6.

These data come from PubChem BioAssay AID248 (DTP/NCI, 2004).
